Data from the supplement of paper PMC3334620.
In all, about 33,000 sequences were measured (“E-score (-0.5 to 0.5)”: median about -0.015, highest 2% from about 0.3 on). Some of the results follow.

Each sequence was assayed against T1, Abf1 (UniProt P14164) (assay: PBM E-score (8-mer binding enrichment) (E-score (-0.5 to 0.5)); higher = stronger / more preferred TF binding). Settings: protein concentration: 200 nM; construct: GST-full length.
T1 sequence: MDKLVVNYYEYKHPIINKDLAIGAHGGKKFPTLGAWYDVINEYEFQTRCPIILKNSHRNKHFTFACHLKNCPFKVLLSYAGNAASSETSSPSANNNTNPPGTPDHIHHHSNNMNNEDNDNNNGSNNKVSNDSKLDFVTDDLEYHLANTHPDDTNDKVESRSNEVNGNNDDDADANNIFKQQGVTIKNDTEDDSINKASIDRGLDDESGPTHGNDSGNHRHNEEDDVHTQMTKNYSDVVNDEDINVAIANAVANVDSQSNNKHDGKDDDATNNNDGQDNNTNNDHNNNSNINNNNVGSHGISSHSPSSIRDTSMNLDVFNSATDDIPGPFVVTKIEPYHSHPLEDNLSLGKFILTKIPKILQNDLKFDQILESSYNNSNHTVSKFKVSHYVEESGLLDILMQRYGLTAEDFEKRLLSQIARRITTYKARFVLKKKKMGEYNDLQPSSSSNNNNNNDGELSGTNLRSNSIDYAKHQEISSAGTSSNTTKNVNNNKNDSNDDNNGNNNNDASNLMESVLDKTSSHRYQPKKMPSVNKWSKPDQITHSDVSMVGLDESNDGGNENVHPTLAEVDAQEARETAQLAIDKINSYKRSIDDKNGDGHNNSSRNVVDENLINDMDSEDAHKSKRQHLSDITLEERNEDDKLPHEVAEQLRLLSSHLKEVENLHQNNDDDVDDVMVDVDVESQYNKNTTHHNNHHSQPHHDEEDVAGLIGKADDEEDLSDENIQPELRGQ
How it was run: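 Full-length yeast transcription factors or their DNA-binding domains, GST-tagged and expressed with PURExpress, were applied at about 100-200 nM to universal all-10-mer Agilent arrays. These arrays had been made double-stranded by primer extension on fresh or once-stripped slides. Detection used fluorescent anti-GST, normalisation used masliner, and E-scores for ungapped eight-base words pooled with reverse complements came from the Universal PBM Analysis Suite.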

Row | Sequence | PBM E-score
1 | CGTGGGAG | 0.0501
2 | CCGAACCC | -0.233
3 | CTTCCTAA | -0.135
4 | CCGCACTA | 0.0091
5 | ATATGTCC | 0.0624
6 | ACCCCCAT | -0.291
7 | CCCGAGTA | -0.105
8 | CCCCAAAC | -0.275
9 | ACTCGAAG | -0.175
10 | CCCTCTCA | -0.268
11 | TAATCCAA | 0.0772
12 | GCCGCTTA | -0.0315
13 | CCGAAGAG | -0.209
14 | GGGCGTGA | 0.214
15 | ACCGAGAG | -0.167
16 | AACGGACC | -0.168
17 | ACAAGTTC | -0.0616
18 | AGCTGTCG | 0.1
19 | CCAATGAG | -0.0959
20 | TATACAAA | 0.14
21 | GTCGACAA | -0.112
22 | AGGCAAAA | 0.0649
23 | ATCACAGA | 0.0333
24 | AATTACGC | -0.0379
25 | CTGACGGC | 0.109

Row | Sequence | PBM E-score
26 | GGAACTAA | -0.0359
27 | AGCCAGAT | -0.124
28 | GCCCTAGC | -0.249
29 | CATATTTA | 0.135
30 | AAGATAAT | 0.0926
31 | CCGCGGTC | -0.149
32 | GCGGTCAA | -0.12
33 | GAAGTGCA | -0.0967
34 | AGTGGGGC | -0.275
35 | TTTGCAAA | 0.0778
36 | GTCTAGCA | -0.0788
37 | TCACGTCA | 0.331
38 | ACTCCAAG | -0.00256
39 | ACGGTAAA | 0.092
40 | TAAAGTGA | 0.282
41 | GAGTTGCC | 0.0297
42 | ACAATGCG | 0.0477
43 | ACAGTGTA | -0.0386
44 | ACCCTTGA | 0.0206
45 | CCCTCGAG | -0.305
46 | AGTTGCGA | -0.027
47 | ACCTGCAG | -0.00304
48 | AACTGTCA | 0.13
49 | CATCTCGC | 0.0691
50 | AGCTAGTC | -0.0461

Row | Sequence | PBM E-score
51 | AAAAACGC | -0.014
52 | AGATGACG | 0.246
53 | AGAGCGAC | 0.0708
54 | CCTATGAG | 0.0388
55 | AAGACGTC | 0.0368
56 | AATCTAGA | -0.114
57 | CGGACCGC | -0.199
58 | GGTGCTCA | -0.151
59 | ATCTAACG | 0.101
60 | AGAAGCAC | -0.157
61 | ACGTTAAG | 0.005
62 | ACTGATAG | -0.0879
63 | TGCCACCA | -0.266
64 | AGTAGGAC | -0.0248
65 | CGTTCTCC | -0.0255
66 | AGATCAGA | -0.0113
67 | CGGATACC | -0.0139
68 | ACCTAAGC | -0.0585
69 | AGCAGTCG | -0.0394
70 | AAAGGTAT | 0.108
71 | ACCGAAAT | 0.122
72 | AGCCACCC | -0.169
73 | GAACCAAA | -0.0341
74 | AGCATAAA | 0.0402
75 | ACGTCCAC | 0.136

Row | Sequence | PBM E-score
76 | CAGCTGCA | -0.179
77 | CAAGTCTC | -0.15
78 | TTACGTAA | 0.196
79 | AGCCCTTC | -0.0822
80 | CAACTAAG | -0.0616
81 | GCTGCGCC | -0.157
82 | CGCGCCGA | -0.0473
83 | CCCGGCCA | -0.267
84 | GATAAGAA | 0.27
85 | TGAAGACA | 0.0305
86 | TCTGGGCA | -0.241
87 | ACAAACAG | 0.0387
88 | AGCCGACT | -0.078
89 | AGAACGAA | 0.218
90 | AGCCGTAC | 0.238
91 | CGAGCATC | -0.126
92 | GACGGTCC | 0.122
93 | ACAAGTTG | -0.0996
94 | GATGTTCA | 0.148
95 | CCTGCGTC | -0.22
96 | CAACGGGC | 0.085
97 | AACAAACA | -0.0765
98 | GCCAACGA | 0.00118
99 | AAATTTAG | 0.136
100 | CCGGAGCG | -0.0546

Row | Sequence | PBM E-score
101 | AAGCTATT | -0.0413
102 | ACGACGAG | 0.156
103 | CTGTTATA | 0.116
104 | CAACTTAG | 0.0187
105 | AAACGGAG | -0.0448
106 | GATTGTAA | 0.0426
107 | GCACACCC | -0.125
108 | CCGAAGTC | -0.0748
109 | CTACGCCA | -0.0775
110 | TCAGGGCA | -0.0897
111 | TGCATCCA | -0.0455
112 | ACTACGCT | 0.0196
113 | AGCACGCA | 0.126
114 | AAACCCCT | -0.326
115 | ATTAGAAC | 0.126
116 | ACATGAGA | 0.0787
117 | TCTGTTAA | -0.0344
118 | ATGGGCGC | -0.159
119 | ACGGGTTG | -0.169
120 | GGTAAGCA | -0.12
121 | CAATACGA | 0.281
122 | ACGGTCTG | 0.0716
123 | GTGCCCAA | 0.14
124 | GAGTATAC | 0.0804
125 | CTTTAAAA | 0.0131

From entry 42 up to 48, copied from above:
Row | Sequence | PBM E-score
42 | ACAATGCG | 0.0477
43 | ACAGTGTA | -0.0386
44 | ACCCTTGA | 0.0206
45 | CCCTCGAG | -0.305
46 | AGTTGCGA | -0.027
47 | ACCTGCAG | -0.00304
48 | AACTGTCA | 0.13

Additional entries.

Row | Sequence | PBM E-score
126 | AATCTGAG | -0.0962
127 | GACTAAGC | 0.0472
128 | CAGCTACA | 0.00655
129 | GCCTTGCC | -0.241
130 | CAAGCTTA | -0.122
131 | GACTGTCC | -0.119
132 | GCCGGCCC | -0.271
133 | GGGAAAAC | -0.145
134 | CAATCAGG | -0.075
135 | TATGACAA | 0.27
136 | CGGTTAGC | -0.285
137 | ATTAAGTA | 0.133
138 | CGTTAATA | 0.262
139 | GGGACAAC | -0.0272
140 | ACCATTCG | 0.0224
141 | CGTAAGTC | -0.0274
142 | ATTGCAAA | -0.03
143 | AATGGAGA | -0.126
144 | AGGCAAAG | 0.0129
145 | ACTAGTCT | -0.206
146 | ATTTGTTG | 0.0443
147 | ATTCACGA | 0.235
148 | GCCGCCGA | -0.00687
149 | GACCCTGC | -0.0412
150 | AGGGATAA | 0.223

Three entries from above, comma-delimited.
Row,Sequence,PBM E-score
139,GGGACAAC,-0.0272
140,ACCATTCG,0.0224
141,CGTAAGTC,-0.0274

The list continues.

Row | Sequence | PBM E-score
151 | CGGTAGGA | -0.266
152 | AGGGCGTA | 0.0399
153 | CGTGCCGA | 0.171
154 | ATCCTACG | 0.2
155 | TACAAGTA | -0.0738
156 | GCACCGGC | -0.15
157 | TAAACATA | 0.167
158 | CCGGTCGA | -0.327
159 | AAACATAA | -0.0197
160 | ATAGGGAG | -0.204
161 | ATAATCCA | 0.089
162 | ATCTACAT | 0.096
163 | GGGTACGA | 0.0568
164 | ATATCCAG | 0.0839
165 | CCCACTTC | -0.0244
166 | AGGGAACC | 0.0245
167 | CGATCCTA | 0.0743
168 | GAGCTCGC | 0.0785
169 | GAGTGTAA | -0.12
170 | ACAACGCG | -0.00096
171 | AAGGCGGC | -0.00603
172 | AGGGCAAT | -0.125
173 | AAGGAAAA | -0.0301
174 | CCAGTATC | 0.133
175 | CCTTGAGA | -0.0941

Row | Sequence | PBM E-score
176 | CTATGCGA | -0.15
177 | CCAATCAA | -0.0817
178 | AGGGTAAA | -0.0734
179 | ACATAGTA | 0.115
180 | AACTTAAT | 0.166
181 | AACATATG | -0.154
182 | GGCTAGCA | -0.32
183 | CCCGTGCG | 0.054
184 | CATGACCA | 0.123
185 | ATAATCAT | 0.326
186 | ACCAGATC | 0.0219
187 | ATGACGCC | 0.0697
188 | ACCTACCT | 0.0114
189 | ATCGAACG | -0.0626
190 | AAATATGA | 0.0696
191 | CTGAGGAC | -0.0365
192 | GGTGTCGA | -0.139
193 | ACATCTGC | -0.0916
194 | ACTACGTC | -0.114
195 | GATCGTCC | 0.194
196 | GAATGGGA | -0.287
197 | ATATCTTC | 0.191
198 | CTTGCCCC | -0.278
199 | TTGTTAAA | 0.0302
200 | CATAATCC | -0.0536

Row | Sequence | PBM E-score
201 | AGAACAGG | -0.0559
202 | GCGCAGTA | 0.0522
203 | AAGCACCC | -0.201
204 | CCGAATTA | -0.00111
205 | CACGGTTC | 0.154
206 | CAAATTGA | -0.22
207 | AAGCTGCA | -0.00249
208 | AAGCCTCT | -0.257
209 | AAGGTGAG | 0.0161
210 | TACGAACA | 0.351
211 | CTACTGCC | 7e-05
212 | GCCCTTGA | -0.034
213 | CGGAAGAA | -0.158
214 | CAACCTCA | -0.0877
215 | AAAAACTG | -0.0716
216 | CGGCAGGA | -0.112
217 | GAGGCTAA | -0.0534
218 | ACGCTAGT | 0.043
219 | CGGTGGCC | -0.133
